# Some of the results follow. Further columns of the screen follow, without active or inactive calls. The list favours compounds with an active or inconclusive main result. Words in brackets tell the shape of the fitted curve; partial curves, single points and poor fits give uncertain potencies.
# Assay: IkB Signaling
# Details: ABC-DLBCL IkBa-CBG/CBR dual luciferase ratio (green luciferase fused to IkBa over red control in OCI-Ly3 lymphoma cells), 4 h
# Procedure, shortened: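 In this assay, an IκBα–CBG68 fusion accumulates when IKK-driven degradation is blocked; native CBR normalizes for cell number. OCI-Ly3 cells were treated 4 h with compound and doxycycline, then green and red light read after Chroma-Glo addition.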
# [1] = measured here: control luc red channel unless noted
compound,measurement,setting,value
O=c1cc(-c2ccccc2)[nH]c2nc3ccccc3n12,AC50,[1],"0.002 µM [falling, full curve]"
COc1ccccc1CNC(=O)CCC1N=C2c3ccccc3N=C(SCC(=O)NCCc3ccc(OC)c(OC)c3)N2C1=O (stereo not drawn),AC50,[1],"0.631 µM [rising, full curve]"
CCc1ccc(-c2cc(C)no2)cc1S(=O)(=O)Nc1ccc(Cl)cc1,AC50,[1],"25.1 µM [falling, single point]"
COc1ccc(-c2noc(-c3ccc(NC(C)c4ccccc4)c([N+](=O)[O-])c3)n2)cc1OC (stereo not drawn),AC50,[1],"3.16 µM [falling, full curve]"
CCOc1ccccc1CN(CCc1ccc2c(c1)OCO2)Cc1cccc(OC)c1OC,AC50,[1],"25.1 µM [falling, single point]"
Cc1ccc(N(Cc2cccs2)C(=O)COc2ccccc2[N+](=O)[O-])cc1,AC50,[1],"12.6 µM [falling, partial curve]"
Cc1cccc(-c2nc(Cn3c(SCc4cc(C)ccc4C)nc4ccncc43)c(C)o2)c1,AC50,[1],"10 µM [falling, partial curve]"
COc1ccc(CCNC(=O)c2nn(C)c3c2CSc2ccccc2-3)cc1OC,AC50,[1],"25.1 µM [falling, single point]"
CCC(SC1=Nc2ccccc2C2=NC(CC(C)C)C(=O)N12)C(=O)Nc1ccc2c(c1)OCO2 (stereo not drawn),AC50,[1],"12.6 µM [falling, partial curve]"
Nc1nnc(SCC(=O)c2ccccc2)s1,AC50,[1],"15.8 µM [falling, single point]"
Cc1ccc2c(CC(=O)OCc3nc(N)nc(Nc4ccccc4C)n3)coc2c1,AC50,[1],"39.8 µM [falling, single point]"
O=C(CCCn1c2ccccc2c(=O)c2ccccc21)Nc1ccc(F)cc1Cl,AC50,[1],"3.98 µM [falling, full curve]"
CC(C)[C@H](NC(=O)OC(C)(C)C)c1nnc(S(=O)(=O)Cc2c(F)cccc2Cl)o1,AC50,measured here: IkB-luc green channel,"6.31 µM [rising, single point]"
same,AC50,measured here: control luc red channel,"10 µM [falling, partial curve]"
Clc1ccc(OCc2nnc(SCc3nnc(-c4ccccc4)o3)o2)c(Cl)c1,AC50,[1],"39.8 µM [falling, single point]"
Cc1occc1C(=O)Nc1cccc2ccccc12,AC50,[1],"25.1 µM [falling, partial curve]"
CC(C)(C)c1ccc(Cn2nnc3c(=O)[nH]c(C4CCCN(C(=O)Cc5cccs5)C4)nc32)cc1 (stereo not drawn),AC50,[1],"31.6 µM [falling, partial curve]"
Cc1ccc2c(COn3nnc4ccc(S(=O)(=O)N(C)C)cc43)cc(=O)oc2c1C,AC50,[1],"25.1 µM [falling, partial curve]"
c1ccc(-c2noc(-c3ccc4ccccc4c3)n2)nc1,AC50,[1],"2 µM [falling, full curve]"
COc1cc(C2c3c(-c4ccccc4O)n[nH]c3C(=O)N2CCO)ccc1OCC(C)C (stereo not drawn),AC50,[1],"0.398 µM [falling, single point]"
COc1ccc(NC(=O)c2oc3ccc(S(=O)(=O)N4CCC5(CC4)OCCO5)cc3c2C)cc1Cl,AC50,[1],"12.6 µM [falling, partial curve]"
COc1ccc(NC(=O)C2CCC(CNS(=O)(=O)c3cccs3)CC2)cc1OC (stereo not drawn),AC50,[1],"0.2 µM [rising, partial curve]"
CC1CCN(S(=O)(=O)c2cc(Br)cc(C(=O)NC3=NCCS3)c2)CC1,AC50,[1],"10 µM [falling, partial curve]"
COc1ccccc1CNC(=O)c1cc2ccc3ccc(C)[nH]c3c2n1,AC50,[1],"12.6 µM [falling, partial curve]"
Cc1ccccc1CSCCNC(=O)CN(c1ccccc1)S(=O)(=O)N(C)C,AC50,[1],"25.1 µM [falling, partial curve]"
Cc1cccc(CC(=O)Nc2cccc(-c3nc4cccnc4s3)c2)c1,AC50,[1],"15.8 µM [rising, partial curve, poor fit]"
Cc1ccc2occ(CC(=O)N3CCN(c4cccc(Cl)c4)CC3)c2c1,AC50,[1],"25.1 µM [falling, single point]"
CC(=O)Nc1cccc(NC(=O)C(=O)NCCc2csc3nc(-c4ccccc4F)nn23)c1,AC50,[1],"3.16 µM [falling, full curve]"
CCOC(=O)c1ccccc1NC(=O)c1nn(C)c2c1COc1ccccc1-2,AC50,[1],"15.8 µM [falling, partial curve]"
COc1ccccc1N1CCN(S(=O)(=O)c2ccc(-c3cnc(C4CC4)o3)cc2)CC1,AC50,[1],"39.8 µM [falling, single point]"
Cc1cccc(C(=O)Nc2cccc(OCc3cc(=O)n4ccccc4n3)c2)c1,AC50,[1],"2.51 µM [falling, full curve]"
Cc1cc(C)c(NC(=O)Cn2c(=O)n(Cc3ccccc3)c(=O)c3c(C)c(C(=O)N(C)C)sc32)c(C)c1,AC50,[1],"12.6 µM [rising, partial curve]"
COc1cc(OC)c(NC(=O)c2c3c(nc4ccccc24)C(=O)N(C2CCCCC2)C3)cc1Cl,AC50,[1],"2.51 µM [falling, full curve]"
CCC1CCCCN1Cc1cn2c(-c3ccc(Br)cc3)nnc2s1 (stereo not drawn),AC50,[1],"1.26 µM [rising, full curve]"
CCSc1nnc(NC(=O)CSc2nccn2-c2cc(C)cc(C)c2)s1,AC50,[1],"12.6 µM [falling, partial curve]"
CCCCOC(=O)Sc1nc2ccccc2o1,AC50,[1],"20 µM [falling, single point]"
CCCN(CCC)C(=O)CSc1nnc2cc(C)c3ccccc3n12,AC50,[1],"2.51 µM [falling, partial curve]"
Cc1cc(C)c(Cn2c3ccccc3c3cnn(CC(=O)NCC(C)c4ccccc4)c(=O)c32)c(C)c1 (stereo not drawn),AC50,[1],"1.58 µM [falling, full curve, poor fit]"
O=C(/C=C/c1ccc(Cl)cc1)Nc1nc(-c2cccs2)ns1,AC50,[1],"0.0794 µM [rising, full curve, poor fit]"
COc1cc(OC)c(NC(=O)CCNS(=O)(=O)c2ccc3c(c2)oc(=O)n3C)cc1Cl,AC50,[1],"12.6 µM [falling, partial curve]"
COc1ccc(-n2c(CCC(=O)O)ccc2-c2ccccc2)c(OC)c1,AC50,[1],"0.316 µM [falling, full curve, poor fit]"
CC(=O)Nc1ccc(S(=O)(=O)N(Cc2ccccc2)Cc2ccccc2)cc1,AC50,[1],"31.6 µM [falling, single point]"
COc1cccc(-c2ccc3c(N)c(C(=O)Nc4ccccc4C)sc3n2)c1,AC50,[1],"39.8 µM [falling, single point]"
Cc1ccc(-c2cc3nc(C)cc(NCc4ccco4)n3n2)cc1,AC50,[1],"25.1 µM [falling, single point]"
CC(C)CCNC(=O)c1ccc2c(c1)nc1n2CCCCC1,AC50,[1],"39.8 µM [falling, single point]"
Cc1sc2nc(-c3cccs3)nc(N3CCCN(C)CC3)c2c1C,AC50,[1],"25.1 µM [falling, single point]"
Nc1ccc2oc(Cc3ccc(Cl)cc3)nc2c1,AC50,[1],"1 µM [falling, partial curve]"
Cc1cc(-c2ccc(S(=O)(=O)Nc3cccc(Cl)c3C)cc2)on1,AC50,[1],"1.58 µM [falling, full curve]"
COc1ccc(N(C)C(=O)c2cc3c(s2)-c2ccccc2OC3)cc1,AC50,[1],"39.8 µM [falling, single point]"
Cc1ccc(Cl)cc1N1CCN(C(=O)C2CCCN(Cc3nc(-c4cccc(Cl)c4)oc3C)C2)CC1 (stereo not drawn),AC50,[1],"15.8 µM [falling, partial curve]"
CCCCNc1nc2c(c(=O)n(Cc3ccccc3)c(=O)n2C)n1C,AC50,[1],"31.6 µM [falling, partial curve]"
Cc1ccc(NC(=O)C2CCCN(S(=O)(=O)c3ccc4c(c3)CCCC(=O)N4)C2)cc1Cl (stereo not drawn),AC50,[1],"25.1 µM [falling, partial curve]"
O=C(c1ccc(Cl)cc1)c1cn(Cc2ccccc2)c2cc3c(cc2c1=O)OCCO3,AC50,[1],"39.8 µM [falling, single point]"
CCc1ccc(CNC(=O)c2ccc(CS(=O)(=O)Cc3cccc(C)c3)o2)cc1,AC50,[1],"25.1 µM [falling, partial curve]"
O=C(NCc1ccc(Cl)cc1)c1ccc2c(c1)N(Cc1ccccc1F)C(=O)c1ccccc1S2=O (stereo not drawn),AC50,[1],"0.00631 µM [falling, full curve, poor fit]"
CCC(C(=O)NCCc1ccc(Cl)cc1)n1ccc2cc(S(=O)(=O)N3CCCCC3)ccc21 (stereo not drawn),AC50,[1],"10 µM [falling, partial curve]"
COc1ccc(CCNC(=O)C(=O)NCC(c2cccnc2)N2CCN(c3ccccc3)CC2)cc1 (stereo not drawn),AC50,[1],"2 µM [rising, partial curve]"
Nc1c(C(=O)Nc2ccccc2)sc2nc(-c3ccco3)ccc12,AC50,[1],"39.8 µM [rising, single point] [measured here: IkB-luc green channel]"
O=C(NC1CCCCC1)c1ccc(N2CCCC2=O)cc1,AC50,[1],"15.8 µM [falling, partial curve]"
COc1ccc(-c2noc(CSc3nnc(-c4ccccc4)n3C)n2)cc1,AC50,[1],"25.1 µM [falling, single point]"
CC(=O)N1CCN(c2ccc(OC[C@H]3CO[C@](Cn4ccnc4)(c4ccc(Cl)cc4Cl)O3)cc2)CC1,AC50,[1],"39.8 µM [falling, partial curve]"
CCCOC(=O)c1ccc(Nc2c(C(=O)OCC)cnc3c(C)cc(Cl)cc23)cc1,AC50,[1],"0.126 µM [rising, full curve, poor fit]"
Cc1oc2c(cc(NS(=O)(=O)c3ccc(F)cc3)c3ccccc32)c1C(=O)OCc1ccccc1,AC50,[1],"25.1 µM [falling, partial curve]"

# Source: PubChem BioAssay AID445 (National Center for Advancing Translational Sciences (NCATS), 2006)
